Source: the supplement of paper PMC10849652
The other results are listed elsewhere or left out.

Sequences of proteins named here, by UniProt entry; tags and fusion partners are left off. A change or cut given only in a name is not applied to a line headed by its entry.
UniProt Q99757: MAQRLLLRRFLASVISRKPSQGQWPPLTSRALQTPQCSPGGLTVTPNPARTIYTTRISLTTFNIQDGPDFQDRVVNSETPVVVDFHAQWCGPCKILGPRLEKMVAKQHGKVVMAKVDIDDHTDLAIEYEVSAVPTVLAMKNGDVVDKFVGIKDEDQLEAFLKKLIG
UniProt P68036, whole entry, looked up: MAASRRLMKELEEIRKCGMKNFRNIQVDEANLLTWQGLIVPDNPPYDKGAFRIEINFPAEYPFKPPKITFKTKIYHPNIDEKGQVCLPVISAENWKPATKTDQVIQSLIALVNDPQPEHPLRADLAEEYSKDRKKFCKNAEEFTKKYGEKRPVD
UniProt Q712K3: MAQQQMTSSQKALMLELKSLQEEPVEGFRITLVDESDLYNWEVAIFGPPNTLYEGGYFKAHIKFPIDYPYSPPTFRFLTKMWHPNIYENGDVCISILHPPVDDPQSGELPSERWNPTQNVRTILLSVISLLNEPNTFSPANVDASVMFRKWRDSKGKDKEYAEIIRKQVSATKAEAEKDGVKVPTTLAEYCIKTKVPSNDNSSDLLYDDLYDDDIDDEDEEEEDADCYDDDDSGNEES
UniProt Q16881, whole entry, looked up: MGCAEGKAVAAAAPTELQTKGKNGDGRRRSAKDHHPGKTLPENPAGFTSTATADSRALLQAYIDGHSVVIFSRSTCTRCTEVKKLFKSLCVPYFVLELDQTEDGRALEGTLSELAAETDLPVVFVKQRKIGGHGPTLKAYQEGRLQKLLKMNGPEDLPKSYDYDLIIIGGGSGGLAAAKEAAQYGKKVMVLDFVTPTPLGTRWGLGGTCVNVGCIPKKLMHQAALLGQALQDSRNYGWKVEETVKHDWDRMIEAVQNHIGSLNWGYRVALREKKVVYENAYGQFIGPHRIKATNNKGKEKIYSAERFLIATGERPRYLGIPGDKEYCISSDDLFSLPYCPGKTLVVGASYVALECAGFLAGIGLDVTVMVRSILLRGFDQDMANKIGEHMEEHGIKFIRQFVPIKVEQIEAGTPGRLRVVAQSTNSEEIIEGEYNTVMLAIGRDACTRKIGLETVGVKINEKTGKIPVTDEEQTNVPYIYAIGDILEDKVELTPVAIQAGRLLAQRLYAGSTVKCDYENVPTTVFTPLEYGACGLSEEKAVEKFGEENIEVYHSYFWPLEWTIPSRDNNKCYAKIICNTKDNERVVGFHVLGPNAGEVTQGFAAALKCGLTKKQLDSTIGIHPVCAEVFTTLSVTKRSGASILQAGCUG
UniProt Q7Z7E8: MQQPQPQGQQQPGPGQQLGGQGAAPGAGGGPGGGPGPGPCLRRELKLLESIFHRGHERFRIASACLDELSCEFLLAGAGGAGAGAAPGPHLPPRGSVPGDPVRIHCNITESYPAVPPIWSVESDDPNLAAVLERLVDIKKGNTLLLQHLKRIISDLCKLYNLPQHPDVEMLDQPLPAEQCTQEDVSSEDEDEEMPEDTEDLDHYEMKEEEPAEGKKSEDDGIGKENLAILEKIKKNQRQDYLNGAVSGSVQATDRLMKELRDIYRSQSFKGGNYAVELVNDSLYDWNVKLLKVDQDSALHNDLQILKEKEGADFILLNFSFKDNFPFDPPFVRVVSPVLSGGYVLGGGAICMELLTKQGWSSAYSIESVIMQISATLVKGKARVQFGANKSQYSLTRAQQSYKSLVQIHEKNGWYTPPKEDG
UniProt P51965: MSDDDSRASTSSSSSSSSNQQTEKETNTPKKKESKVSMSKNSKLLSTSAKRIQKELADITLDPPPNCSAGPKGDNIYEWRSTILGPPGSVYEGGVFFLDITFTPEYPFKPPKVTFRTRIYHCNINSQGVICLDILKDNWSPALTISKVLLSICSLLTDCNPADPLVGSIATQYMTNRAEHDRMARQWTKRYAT
UniProt P63279, whole entry, looked up: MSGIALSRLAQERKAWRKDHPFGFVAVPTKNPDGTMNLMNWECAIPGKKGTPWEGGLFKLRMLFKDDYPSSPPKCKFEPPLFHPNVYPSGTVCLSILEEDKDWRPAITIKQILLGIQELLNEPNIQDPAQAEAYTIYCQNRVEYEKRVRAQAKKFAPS
UniProt Q9NNW7, whole entry, looked up: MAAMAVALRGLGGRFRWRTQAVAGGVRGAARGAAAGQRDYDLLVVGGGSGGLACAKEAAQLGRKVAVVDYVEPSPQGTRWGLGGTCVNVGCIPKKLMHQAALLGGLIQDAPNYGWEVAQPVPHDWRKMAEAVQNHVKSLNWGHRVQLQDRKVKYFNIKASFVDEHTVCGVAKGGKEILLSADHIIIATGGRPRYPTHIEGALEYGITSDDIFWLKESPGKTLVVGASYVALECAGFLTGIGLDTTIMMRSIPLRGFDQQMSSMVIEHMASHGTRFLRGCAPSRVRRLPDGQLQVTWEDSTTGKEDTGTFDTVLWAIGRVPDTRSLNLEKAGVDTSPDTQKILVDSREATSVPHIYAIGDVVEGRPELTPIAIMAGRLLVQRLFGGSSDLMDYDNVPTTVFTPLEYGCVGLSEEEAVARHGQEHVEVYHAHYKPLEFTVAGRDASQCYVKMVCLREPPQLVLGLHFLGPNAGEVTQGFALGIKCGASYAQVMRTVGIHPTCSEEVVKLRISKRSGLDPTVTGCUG
UniProt Q9BTX7: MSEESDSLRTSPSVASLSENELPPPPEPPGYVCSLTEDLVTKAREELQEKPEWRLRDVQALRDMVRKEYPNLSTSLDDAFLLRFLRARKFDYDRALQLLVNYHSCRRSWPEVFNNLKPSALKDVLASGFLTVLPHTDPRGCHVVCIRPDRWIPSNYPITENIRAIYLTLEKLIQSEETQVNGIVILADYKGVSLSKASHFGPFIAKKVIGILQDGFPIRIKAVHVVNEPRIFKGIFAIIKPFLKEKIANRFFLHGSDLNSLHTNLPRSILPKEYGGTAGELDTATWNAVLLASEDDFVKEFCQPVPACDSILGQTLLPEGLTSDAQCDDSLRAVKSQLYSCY
UniProt O95155, whole entry, looked up: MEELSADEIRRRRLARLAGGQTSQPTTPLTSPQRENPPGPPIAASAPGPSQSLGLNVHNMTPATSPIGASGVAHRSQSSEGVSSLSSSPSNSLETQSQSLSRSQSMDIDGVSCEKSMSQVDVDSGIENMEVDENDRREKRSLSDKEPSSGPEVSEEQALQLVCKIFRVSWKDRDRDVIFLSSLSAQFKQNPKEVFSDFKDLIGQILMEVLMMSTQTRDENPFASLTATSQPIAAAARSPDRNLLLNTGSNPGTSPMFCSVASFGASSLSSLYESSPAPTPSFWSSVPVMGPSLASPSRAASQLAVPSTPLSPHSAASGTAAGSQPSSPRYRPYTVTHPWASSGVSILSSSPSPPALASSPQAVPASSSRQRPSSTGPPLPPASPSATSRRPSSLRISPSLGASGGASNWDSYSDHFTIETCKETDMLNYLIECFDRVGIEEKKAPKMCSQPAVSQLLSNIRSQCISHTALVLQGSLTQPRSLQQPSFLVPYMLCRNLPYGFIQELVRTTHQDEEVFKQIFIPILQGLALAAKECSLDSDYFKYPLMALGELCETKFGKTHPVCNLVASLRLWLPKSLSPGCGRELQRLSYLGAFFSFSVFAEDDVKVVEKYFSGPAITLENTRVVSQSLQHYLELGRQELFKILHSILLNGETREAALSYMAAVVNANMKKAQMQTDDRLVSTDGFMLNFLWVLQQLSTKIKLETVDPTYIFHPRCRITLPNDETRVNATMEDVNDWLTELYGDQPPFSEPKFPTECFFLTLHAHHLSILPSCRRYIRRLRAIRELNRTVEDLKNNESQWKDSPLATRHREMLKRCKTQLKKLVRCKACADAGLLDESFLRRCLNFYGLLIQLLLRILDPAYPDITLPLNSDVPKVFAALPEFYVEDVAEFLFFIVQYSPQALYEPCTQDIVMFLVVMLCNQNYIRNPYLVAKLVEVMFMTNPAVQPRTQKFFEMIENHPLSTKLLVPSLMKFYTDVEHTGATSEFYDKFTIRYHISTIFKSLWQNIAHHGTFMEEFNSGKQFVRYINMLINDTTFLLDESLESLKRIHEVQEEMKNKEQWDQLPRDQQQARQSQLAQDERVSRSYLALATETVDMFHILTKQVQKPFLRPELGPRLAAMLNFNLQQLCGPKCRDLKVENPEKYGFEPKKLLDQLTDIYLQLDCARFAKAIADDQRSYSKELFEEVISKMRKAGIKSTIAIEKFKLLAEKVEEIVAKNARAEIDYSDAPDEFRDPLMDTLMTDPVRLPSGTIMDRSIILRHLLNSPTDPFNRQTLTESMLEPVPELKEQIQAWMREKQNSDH
UniProt P07437, whole entry, looked up: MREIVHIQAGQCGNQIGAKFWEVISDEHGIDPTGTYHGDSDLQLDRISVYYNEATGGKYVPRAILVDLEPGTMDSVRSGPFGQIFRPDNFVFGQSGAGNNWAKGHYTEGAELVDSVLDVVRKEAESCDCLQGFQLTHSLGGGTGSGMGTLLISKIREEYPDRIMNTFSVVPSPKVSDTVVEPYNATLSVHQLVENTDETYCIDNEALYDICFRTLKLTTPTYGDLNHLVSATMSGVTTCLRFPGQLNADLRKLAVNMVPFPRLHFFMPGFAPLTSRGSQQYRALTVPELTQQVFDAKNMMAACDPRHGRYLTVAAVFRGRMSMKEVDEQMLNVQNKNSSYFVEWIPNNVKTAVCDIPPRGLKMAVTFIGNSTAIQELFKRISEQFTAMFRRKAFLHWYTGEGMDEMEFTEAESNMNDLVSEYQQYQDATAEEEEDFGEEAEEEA
UniProt Q15819: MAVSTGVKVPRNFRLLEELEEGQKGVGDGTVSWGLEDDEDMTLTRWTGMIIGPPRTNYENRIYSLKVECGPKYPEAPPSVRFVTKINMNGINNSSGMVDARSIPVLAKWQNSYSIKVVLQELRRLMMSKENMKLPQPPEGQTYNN
UniProt Q04323: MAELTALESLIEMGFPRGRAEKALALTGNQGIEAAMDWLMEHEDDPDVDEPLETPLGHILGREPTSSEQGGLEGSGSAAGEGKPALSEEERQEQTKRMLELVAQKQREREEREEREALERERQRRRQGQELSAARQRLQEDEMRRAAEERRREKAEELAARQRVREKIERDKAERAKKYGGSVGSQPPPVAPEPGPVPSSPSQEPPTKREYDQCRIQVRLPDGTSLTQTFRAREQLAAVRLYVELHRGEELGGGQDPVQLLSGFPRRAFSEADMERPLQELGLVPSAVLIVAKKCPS
UniProt P51668: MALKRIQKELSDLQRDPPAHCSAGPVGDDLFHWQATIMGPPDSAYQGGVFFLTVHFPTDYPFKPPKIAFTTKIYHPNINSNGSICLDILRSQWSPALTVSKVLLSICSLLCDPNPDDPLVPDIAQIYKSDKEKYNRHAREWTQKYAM
UniProt Q9UHD9, whole entry, looked up: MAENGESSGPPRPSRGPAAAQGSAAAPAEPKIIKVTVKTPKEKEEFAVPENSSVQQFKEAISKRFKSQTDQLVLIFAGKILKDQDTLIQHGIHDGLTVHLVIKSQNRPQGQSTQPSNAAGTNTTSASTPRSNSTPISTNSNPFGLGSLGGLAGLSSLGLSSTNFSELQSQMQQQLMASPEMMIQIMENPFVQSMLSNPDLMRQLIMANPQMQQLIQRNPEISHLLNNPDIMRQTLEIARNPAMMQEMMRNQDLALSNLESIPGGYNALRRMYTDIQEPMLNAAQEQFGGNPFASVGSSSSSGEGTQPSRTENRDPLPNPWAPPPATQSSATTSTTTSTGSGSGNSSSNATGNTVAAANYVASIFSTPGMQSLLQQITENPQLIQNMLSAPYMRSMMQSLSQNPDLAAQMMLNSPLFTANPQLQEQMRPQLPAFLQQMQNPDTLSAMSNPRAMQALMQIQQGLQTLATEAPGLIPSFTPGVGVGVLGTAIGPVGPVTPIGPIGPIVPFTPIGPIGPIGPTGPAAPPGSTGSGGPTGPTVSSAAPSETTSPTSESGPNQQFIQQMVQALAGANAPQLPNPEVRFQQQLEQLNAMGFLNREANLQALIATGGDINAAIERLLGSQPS
UniProt Q01081: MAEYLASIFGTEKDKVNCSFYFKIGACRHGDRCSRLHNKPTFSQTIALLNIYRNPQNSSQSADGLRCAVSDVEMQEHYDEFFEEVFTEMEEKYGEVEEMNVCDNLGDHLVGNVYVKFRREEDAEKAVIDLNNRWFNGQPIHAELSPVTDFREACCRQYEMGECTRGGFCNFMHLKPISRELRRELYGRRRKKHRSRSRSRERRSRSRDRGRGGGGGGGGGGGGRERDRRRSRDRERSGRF
UniProt Q13509, whole entry, looked up: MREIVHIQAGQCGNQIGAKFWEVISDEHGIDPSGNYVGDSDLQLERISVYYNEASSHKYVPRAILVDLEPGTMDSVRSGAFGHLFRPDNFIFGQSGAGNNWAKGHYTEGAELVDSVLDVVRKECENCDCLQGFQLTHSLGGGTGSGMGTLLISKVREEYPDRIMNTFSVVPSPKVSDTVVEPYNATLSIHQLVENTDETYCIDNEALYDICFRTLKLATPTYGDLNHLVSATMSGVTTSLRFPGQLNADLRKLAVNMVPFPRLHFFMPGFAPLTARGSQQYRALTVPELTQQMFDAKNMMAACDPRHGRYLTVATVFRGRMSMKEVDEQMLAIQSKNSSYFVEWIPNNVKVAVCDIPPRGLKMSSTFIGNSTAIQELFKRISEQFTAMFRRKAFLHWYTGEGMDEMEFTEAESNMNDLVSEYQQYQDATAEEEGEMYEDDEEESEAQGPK

Each target was assayed with CC(=O)c1cnc2ccc(-c3cc(Cl)c(O)c(Cl)c3)nc2c1N[C@H]1CC[C@H](CN(C)C)CC1 (assay: log2 fold change, soluble protein after heating vs DMSO (PISA); higher = thermal stabilisation; K562 lysate, 10 uM; active = over 0.2 and 3.5 SD of the protein, either way, in both replicates (recomputed)).
Summary of the method: (§1)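 K562 pellets were dounce-homogenised in PBS pH 7.4 containing 1 mM MgCl2, and the crude extract, at 1 mg/mL protein, was exposed to 10 μM compound for 30 min. Aliquots were heated for 3 min across 48°C-58°C, pooled, brought to 0.5% NP-40 at 4°C and spun at 21,000xg for 90 min, with the supernatant taken as soluble protein. TMTpro 16plex LC-MS/MS with equalised channel sums quantified that protein. Values are log-two fold changes in thermal stability relative to solvent controls, taken from duplicates.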

Target | log2 fold change
TXN2 (UniProt Q99757) | inactive: -0.053
TWISTNB (UniProt Q3B726) | inactive: -0.057
UBE2L3 isoform 3 (UniProt P68036) | inactive: 0.019
UBE2R2 (UniProt Q712K3) | inactive: 0.029
TXNL4A (UniProt P83876) | inactive: -0.009
TXNRD1 (UniProt Q16881) | inactive: -0.007
UBE2Q1 (UniProt Q7Z7E8) | inactive: -0.031
TUBG1 (UniProt P23258) | inactive: 0.013
UBE2E1 (UniProt P51965) | inactive: 0.036
UCHL3 (UniProt P15374) | inactive: 0.013
TUBB1 (UniProt Q9H4B7) | inactive: -0.01
UBE2I (UniProt P63279) | inactive: -0.021
TXLNA (UniProt P40222) | inactive: 0.006
TTN isoform 12 (UniProt Q8WZ42) | inactive: -0.05
UBR2 isoform 4 (UniProt Q8IWV8) | inactive: -0.002
TUBGCP2 isoform 4 (UniProt Q9BSJ2) | inactive: 0.042
TXNRD2 (UniProt Q9NNW7) | inactive: -0.002
UAP1L1 (UniProt Q3KQV9) | inactive: -0.003

Target | log2 fold change
TUT4 (UniProt Q5TAX3) | inactive: -0.013
UCHL5 isoform 3 (UniProt Q9Y5K5) | inactive: -0.001
TTPAL (UniProt Q9BTX7) | inactive: -0.021
UBE2B (UniProt P63146) | inactive: 0.01
UBE4B isoform 4 (UniProt O95155) | inactive: -0.005
TUBGCP3 (UniProt Q96CW5) | inactive: 0.018
TUBB (UniProt P07437) | inactive: 0.011
UBE2V2 (UniProt Q15819) | inactive: 0.015
UBXN1 (UniProt Q04323) | inactive: -0.006
UBFD1 (UniProt O14562) | inactive: 0.008
UBE2D1 (UniProt P51668) | inactive: 0.017
UBQLN2 (UniProt Q9UHD9) | inactive: 0.001
TUFM (UniProt P49411) | inactive: 0.011
U2AF1 isoform 2 (UniProt Q01081) | inactive: 0.005
TUBB3 (UniProt Q13509) | inactive: 0.009
UBE2E3 (UniProt Q969T4) | inactive: -0.021
UBC (UniProt P0CG48) | inactive: 0

Each target was assayed with CC(C)(C)Cn1c(N)nc2ccc(-c3[nH]c(C(C)(C)C)nc3-c3ccc(F)cc3)nc21 [ralimetinib] in the same assay as above.
Summary of the method: as §1

Target | log2 fold change
TXN2 (UniProt Q99757) | inactive: -0.011
TWISTNB (UniProt Q3B726) | inactive: 0.023
UBE2L3 isoform 3 (UniProt P68036) | inactive: -0.019
UBE2R2 (UniProt Q712K3) | inactive: 0.008
TXNL4A (UniProt P83876) | inactive: -0.019
TXNRD1 (UniProt Q16881) | inactive: -0.002
UBE2Q1 (UniProt Q7Z7E8) | inactive: 0.024
TUBG1 (UniProt P23258) | inactive: -0.079
UBE2E1 (UniProt P51965) | inactive: -0.088
UCHL3 (UniProt P15374) | inactive: 0.035
TUBB1 (UniProt Q9H4B7) | inactive: -0.003
UBE2I (UniProt P63279) | inactive: -0.012
TXLNA (UniProt P40222) | inactive: 0.002
TTN isoform 12 (UniProt Q8WZ42) | inactive: -0.017
UBR2 isoform 4 (UniProt Q8IWV8) | inactive: 0.029
TUBGCP2 isoform 4 (UniProt Q9BSJ2) | inactive: -0.007
TXNRD2 (UniProt Q9NNW7) | inactive: 0.025
UAP1L1 (UniProt Q3KQV9) | inactive: 0.079

Target | log2 fold change
TUT4 (UniProt Q5TAX3) | inactive: 0.006
UCHL5 isoform 3 (UniProt Q9Y5K5) | inactive: 0.01
TTPAL (UniProt Q9BTX7) | inactive: -0.029
UBE2B (UniProt P63146) | inactive: -0.006
UBE4B isoform 4 (UniProt O95155) | inactive: -0.002
TUBGCP3 (UniProt Q96CW5) | inactive: 0.03
TUBB (UniProt P07437) | inactive: 0.038
UBE2V2 (UniProt Q15819) | inactive: 0.004
UBXN1 (UniProt Q04323) | inactive: 0.031
UBFD1 (UniProt O14562) | inactive: -0.004
UBE2D1 (UniProt P51668) | inactive: -0.009
UBQLN2 (UniProt Q9UHD9) | inactive: -0.005
TUFM (UniProt P49411) | inactive: 0.011
U2AF1 isoform 2 (UniProt Q01081) | inactive: 0.013
TUBB3 (UniProt Q13509) | inactive: 0.022
UBE2E3 (UniProt Q969T4) | inactive: -0.004
UBC (UniProt P0CG48) | inactive: 0.007
